Experimental data from patent US8044204B2, “8-methoxy-9H-isothiazolo[5,4-b]quinoline-3,4-diones and related compounds as anti-infective agents” (Achillion Pharmaceuticals, Inc., priority 2005, dated 2011).
Counter-ions that a name gives are not always drawn.

Tested on: Hep2 cells
Experiment: Cell viability staining with Alamar Blue (cytotoxicity CC50), Hep2
Assay type: cell-based, human
Settings: R6 = F, hep2 CC50 over MRSA MIC
Procedure: To determine whether the microcidal effect observed against S. aureus and E. coli is specific to bacterial cells, compounds are screened for cell viability effects on several human cell types.
Optimal cell density is first determined by plating cells in a 96-well plate standard sterile tissue culture plates in 100 μl media, 10% FBS at six cell densities from 500 cells/well to 15,000 cells/well. A cell free well containing only media is used as a control. Cells are incubated at 37° C. in a 5% CO2 incubator for 24 hours. 10% culture volume (10 ul) of Alamar Blue (Biosource, DAL1100, 100 mL) is then added. Cells are incubated at 37° C. in a 5% CO2 incubator and read in a Victor V plate reader, 544 nm excitation, 590 nm emission, at 3, 4, and 24 hours after the addition of Alamar Blue. The cell number vs. change in fluorescence is plotted to determine linearity of signal vs. cell number. The optimal density varies between 500-15,000 cells/well depending on the specific cell type. The optimal density is selected based on the highest number of cells that is still in the linear response range.
Determination of Compound Cytotoxicity
Cells are plated at optimal cell density in a standard sterile tissue culture 96 well plate, and incubated at 37° C. O/N in a 5% CO2 incubator. 12 to 48 hours post-plating media is removed. The cells are washed 1 or 2 times with 1×PBS and replaced with fresh media containing the test compound in 1% DMSO. 24 to 72 hours after addition of compound, the media is removed, and the cells washed 1 to 2 times with 1×PBS. Fresh media containing 1/10 volume of Alamar Blue is then added. Plates are incubated 4 hours at 37° C. in a 5% CO2 incubator and read in a Victor V plate reader, 544 nm excitation, 590 nm emission.
Compounds are diluted to 20 micromolar in 1% DMSO and media and screened in duplicate to obtain single concentration cytotoxicity data. Eight concentration points from 0.78 micromolar to 100 micromolar, run in duplicate, are used to determine cyclotoxicity CC50 values. Cells with 1% DMSO and media are used as a negative control, compounds having a known CC50 against a particular cell type are used as positive controls.
The change in fluorescence vs. concentration of test compound is plotted to determine the cytotoxicity of the compound.
Sample media conditions, optimal plating densities, and positive control compounds for two cell types screened are presented in Table III.

| Structure (SMILES) | CC50/MIC (R8 = Methoxy compounds) | CC50/MIC (R8 = H compounds) |
| --- | --- | --- |
| COc1c(N2CC[C@H](C(C)(C)N)C2)c(F)cc2c(=O)c3c(=O)[nH]sc3n(C3CC3)c12 [Compound 58, (S)-7-(3-(2-aminopropan-2-yl)pyrrolidin-1-yl)-9-cyclopropyl-6-fluoro-8-methoxyiso-thiazolo[5,4-b]quinoline-3,4(2H,9H)-dione] | 40.7 | – |
| COc1c(N2CC3CCCNC3C2)c(F)cc2c(=O)c3c(=O)[nH]sc3n(C3CC3)c12 (stereo not drawn) [Compound 45, 9-cyclopropyl-6-fluoro-8-methoxy-7-(octahydro-pyrrolo[3,4-b]pyridin-6-yl)isothia-zolo[5,4-b]quinoline-3,4(2H,9H)-dione, hydrochloride] | 46.5 | – |
| O=c1[nH]sc2c1c(=O)c1cc(F)c(N3CC4CCCNC4C3)cc1n2C1CC1 (stereo not drawn) [Compound 46, 9-cyclopropyl-6-fluoro-7-(octahydro-pyrrolo[3,4-b]pyridin-6-yl)isothia-zolo[5,4-b]quinoline-3,4(2H,9H)-dione, hydrochloride] | – | 1.2 |
| COc1c(N2CCC(N(C)C)C2)c(F)cc2c(=O)c3c(=O)[nH]sc3n(C3CC3)c12 (stereo not drawn) [Compound 49, 9-cyclopropyl-7-(3-(dimethyl-amino)pyrrolidin-1-yl)-6-fluoro-8-methoxy-isothiazolo[5,4-b]quinoline-3,4(2H,9H)-dione] | 17.0 | – |
| COc1c(N2CC[C@@H](C(C)(C)N)C2)c(F)cc2c(=O)c3c(=O)[nH]sc3n(C3CC3)c12 [Compound 53, (R)-7-(3-(2-aminopropan-2-yl)pyrrolidin-1-yl)-9-cyclopropyl-6-fluoro-8-methoxyiso-thiazolo[5,4-b]quinoline-3,4(2H,9H)-dione] | 85.0 | – |
| NC[C@@H]1CCN(c2cc3c(cc2F)c(=O)c2c(=O)[nH]sc2n3C2CC2)C1 [Compound 64, (S)-7-(3-(aminomethyl)-pyrrolidin-1-yl)-9-cyclopropyl-6-fluoroiso-thiazolo[5,4-b]quinoline-3,4(2H,9H)-dione] | – | 3.1 |
| CN(C)C1CCN(c2cc3c(cc2F)c(=O)c2c(=O)[nH]sc2n3C2CC2)C1 (stereo not drawn) [Compound 114, 9-cyclo-propyl-7-(3-(dimethyl-amino)pyrrolidin-1-yl)-6-fluoroiso-thiazolo[5,4-b]quinoline-3,4(2H,9H)-dione] | – | 1.5 |
| COc1c(N2CC[C@H](CN)C2)c(F)cc2c(=O)c3c(=O)[nH]sc3n(C3CC3)c12 [Compound 67, (R)-7-(3-(aminomethyl)-pyrrolidin-1-yl)-9-cyclopropyl-6-fluoro-8-methoxyiso-thiazolo[5,4-b]quinoline-3,4(2H,9H)-dione] | 44.0 | – |
| CNC(C)(C)[C@@H]1CCN(c2cc3c(cc2F)c(=O)c2c(=O)[nH]sc2n3C2CC2)C1 [Compound 80, (R)-9-cyclo-propyl-6-fluoro-7-(3-(2-(methylamino)propan-2-yl)-pyrrolidin-1-yl)isothia-zolo[5,4-b]quinoline-3,4(2H,9H)-dione] | – | 0.3 |
| COc1c(N2CC[C@@H](CN)C2)c(F)cc2c(=O)c3c(=O)[nH]sc3n(C3CC3)c12 [Compound 63, (S)-7-(3-(aminomethyl)-pyrrolidin-1-yl)-9-cyclopropyl-6-fluoro-8-methoxyiso-thiazolo[5,4-b]quinoline-3,4(2H,9H)-dione] | 26.2 | – |
| NC[C@H]1CCN(c2cc3c(cc2F)c(=O)c2c(=O)[nH]sc2n3C2CC2)C1 [Compound 68, (R)-7-(3-(aminomethyl)-pyrrolidin-1-yl)-9-cyclopropyl-6-fluoroiso-thiazolo[5,4-b]quinoline-3,4(2H,9H)-dione] | – | 2.3 |
| COc1c(N2CCNCC2)c(F)cc2c(=O)c3c(=O)[nH]sc3n(C3CC3)c12 [Compound 38, 9-cyclopropyl-6-fluoro-8-methoxy-7-(piperazin-1-yl)isothia-zolo[5,4-b]quinoline-3,4(2H,9H)-dione] | 7.1 | – |
| CC(C)(N)[C@H]1CCN(c2cc3c(cc2F)c(=O)c2c(=O)[nH]sc2n3C2CC2)C1 [Compound 61, (S)-7-(3-(2-aminopropan-2-yl)pyrrolidin-1-yl)-9-cyclopropyl-6-fluoroiso-thiazolo[5,4-b]quinoline-3,4(2H,9H)-dione] | – | 0.4 |
| CNC(C)(C)[C@@H]1CCN(c2c(F)cc3c(=O)c4c(=O)[nH]sc4n(C4CC4)c3c2OC)C1 [Compound 76, (R)-9-cyclo-propyl-6-fluoro-8-methoxy-7-(3-(2-(methyl-amino)propan-2-yl)pyrrolidin-1-yl)isothia-zolo[5,4-b]quinoline-3,4(2H,9H)-dione] | 216.0 | – |
| CC(C)(N)[C@@H]1CCN(c2cc3c(cc2F)c(=O)c2c(=O)[nH]sc2n3C2CC2)C1 [Compound 52, (R)-7-(3-(2-aminopropan-2-yl)pyrrolidin-1-yl)-9-cyclopropyl-6-fluoroisothia-zolo[5,4-b]quinoline-3,4(2H,9H)-dione, hydrochloride] | – | 1.4 |
